Results reported in publication PMC6514072.

B1: Tissue factor pathway inhibitor 2 (protein, UniProt P48307 23-235)
chain: DAAQEPTGNNAEICLLPLDYGPCRALLLRYYYDRYTQSCRQFLYGGCEGNANNFYTWEACDDACWRIEKVPKVCRLQVSVDDQCEGSTEKYFFNLSSMTCEKFFSGGCHRNRIENRFPDEATCMGFCAPKKIPSFCYSPKDEGLCSANVTRYYFNPRYRTCDAFTYTGCGGNDNNFVSREDCKRACAKALKKKKKMPKLRFASRIRKIRKKQF
B2: CD81 antigen (protein, UniProt P60033 1-236)
chain: MGVEGCTKCIKYLLFVFNFVFWLAGGVILGVALWLRHDPQTTNLLYLELGDKPAPNTFYVGIYILIAVGAVMMFVGFLGCYGAIQESQCLLGTFFTCLVILFACEVAAGIWGFVNKDQIAKDVKQFYDQALQQAVVDDDANNAKAVVKTFHETLDCCGSSTLTALTTSVLKNNLCPSGSNIISNLFKEDCHQKIDDLFSGKLYLIGIAAIVVAVIMIFEMILSMVLCCGIRNSSVY
B3: Guanylyl cyclase-activating protein 2 (protein, UniProt Q9UMX6 1-200)
chain: MGQEFSWEEAEAAGEIDVAELQEWYKKFVMECPSGTLFMHEFKRFFKVTDDEEASQYVEGMFRAFDKNGDNTIDFLEYVAALNLVLRGTLEHKLKWTFKIYDKDGNGCIDRLELLNIVEGIYQLKKACRRELQTEQGQLLTPEEVVDRIFLLVDENGDGQLSLNEFVEGARRDKWVMKMLQMDMNPSSWLAQQRRKSAMF
B4: Nitric oxide synthase-interacting protein (protein, UniProt Q9Y314 1-301)
chain: MTRHGKNCTAGAVYTYHEKKKDTAASGYGTQNIRLSRDAVKDFDCCCLSLQPCHDPVVTPDGYLYEREAILEYILHQKKEIARQMKAYEKQRGTRREEQKELQRAASQDHVRGFLEKESAIVSRPLNPFTAKALSGTSPDDVQPGPSVGPPSKDKDKVLPSFWIPSLTPEAKATKLEKPSRTVTCPMSGKPLRMSDLTPVHFTPLDSSVDRVGLITRSERYVCAVTRDSLSNATPCAVLRPSGAVVTLECVEKLIRKDMVDPVTGDKLTDRDIIVLQRGGTGFAGSGVKLQAEKSRPVMQA
B5: Protein phosphatase 1F (protein, UniProt P49593 1-454)
chain: MSSGAPQKSSPMASGAEETPGFLDTLLQDFPALLNPEDPLPWKAPGTVLSQEEVEGELAELAMGFLGSRKAPPPLAAALAHEAVSQLLQTDLSEFRKLPREEEEEEEDDDEEEKAPVTLLDAQSLAQSFFNRLWEVAGQWQKQVPLAARASQRQWLVSIHAIRNTRRKMEDRHVSLPSFNQLFGLSDPVNRAYFAVFDGHGGVDAARYAAVHVHTNAARQPELPTDPEGALREAFRRTDQMFLRKAKRERLQSGTTGVCALIAGATLHVAWLGDSQVILVQQGQVVKLMEPHRPERQDEKARIEALGGFVSHMDCWRVNGTLAVSRAIGDVFQKPYVSGEADAASRALTGSEDYLLLACDGFFDVVPHQEVVGLVQSHLTRQQGSGLRVAEELVAAARERGSHDNITVMVVFLRDPQELLEGGNQGEGDPQAEGRRQDLPSSLPEPETQAPPRS
B6: Tyrosine-protein kinase Mer (protein, UniProt Q12866 21-999)
chain: AITEAREEAKPYPLFPGPFPGSLQTDHTPLLSLPHASGYQPALMFSPTQPGRPHTGNVAIPQVTSVESKPLPPLAFKHTVGHIILSEHKGVKFNCSISVPNIYQDTTISWWKDGKELLGAHHAITQFYPDDEVTAIIASFSITSVQRSDNGSYICKMKINNEEIVSDPIYIEVQGLPHFTKQPESMNVTRNTAFNLTCQAVGPPEPVNIFWVQNSSRVNEQPEKSPSVLTVPGLTEMAVFSCEAHNDKGLTVSKGVQINIKAIPSPPTEVSIRNSTAHSILISWVPGFDGYSPFRNCSIQVKEADPLSNGSVMIFNTSALPHLYQIKQLQALANYSIGVSCMNEIGWSAVSPWILASTTEGAPSVAPLNVTVFLNESSDNVDIRWMKPPTKQQDGELVGYRISHVWQSAGISKELLEEVGQNGSRARISVQVHNATCTVRIAAVTRGGVGPFSDPVKIFIPAHGWVDYAPSSTPAPGNADPVLIIFGCFCGFILIGLILYISLAIRKRVQETKFGNAFTEEDSELVVNYIAKKSFCRRAIELTLHSLGVSEELQNKLEDVVIDRNLLILGKILGEGEFGSVMEGNLKQEDGTSLKVAVKTMKLDNSSQREIEEFLSEAACMKDFSHPNVIRLLGVCIEMSSQGIPKPMVILPFMKYGDLHTYLLYSRLETGPKHIPLQTLLKFMVDIALGMEYLSNRNFLHRDLAARNCMLRDDMTVCVADFGLSKKIYSGDYYRQGRIAKMPVKWIAIESLADRVYTSKSDVWAFGVTMWEIATRGMTPYPGVQNHEMYDYLLHGHRLKQPEDCLDELYEIMYSCWRTDPLDRPTFSVLRLQLEKLLESLPDVRNQADVIYVNTQLLESSEGLAQGSTLAPLDLNIDPDSIIASCTPRAAISVVTAEVHDSKPHEGRYILNGGSEEWEDLTSAPSAAVTAEKNSVLPGERLVRNGVSWSHSSMLPLGSSLPDELLFADDSSEGSEVLM
B7: Lysyl oxidase homolog 4 (protein, UniProt Q96JB6 25-756)
chain: QSLGTTKLRLVGPESKPEEGRLEVLHQGQWGTVCDDNFAIQEATVACRQLGFEAALTWAHSAKYGQGEGPIWLDNVRCVGTESSLDQCGSNGWGVSDCSHSEDVGVICHPRRHRGYLSETVSNALGPQGRRLEEVRLKPILASAKQHSPVTEGAVEVKYEGHWRQVCDQGWTMNNSRVVCGMLGFPSEVPVDSHYYRKVWDLKMRDPKSRLKSLTNKNSFWIHQVTCLGTEPHMANCQVQVAPARGKLRPACPGGMHAVVSCVAGPHFRPPKTKPQRKGSWAEEPRVRLRSGAQVGEGRVEVLMNRQWGTVCDHRWNLISASVVCRQLGFGSAREALFGARLGQGLGPIHLSEVRCRGYERTLSDCPALEGSQNGCQHENDAAVRCNVPNMGFQNQVRLAGGRIPEEGLLEVQVEVNGVPRWGSVCSENWGLTEAMVACRQLGLGFAIHAYKETWFWSGTPRAQEVVMSGVRCSGTELALQQCQRHGPVHCSHGGGRFLAGVSCMDSAPDLVMNAQLVQETAYLEDRPLSQLYCAHEENCLSKSADHMDWPYGYRRLLRFSTQIYNLGRTDFRPKTGRDSWVWHQCHRHYHSIEVFTHYDLLTLNGSKVAEGHKASFCLEDTNCPTGLQRRYACANFGEQGVTVGCWDTYRHDIDCQWVDITDVGPGNYIFQVIVNPHYEVAESDFSNNMLQCRCKYDGHRVWLHNCHTGNSYPANAELSLEQEQRLRNNLI
B8: Myosin regulatory light chain 12A (protein, UniProt P19105 1-171)
chain: MSSKRTKTKTKKRPQRATSNVFAMFDQSQIQEFKEAFNMIDQNRDGFIDKEDLHDMLASLGKNPTDEYLDAMMNEAPGPINFTMFLTMFGEKLNGTDPEDVIRNAFACFDEEATGTIQEDYLRELLTTMGDRFTDEEVDELYREAPIDKKGNFNYIEFTRILKHGAKDKDD
B9: Myosin regulatory light polypeptide 9 (protein, UniProt P24844 1-172)
chain: MSSKRAKAKTTKKRPQRATSNVFAMFDQSQIQEFKEAFNMIDQNRDGFIDKEDLHDMLASLGKNPTDEYLEGMMSEAPGPINFTMFLTMFGEKLNGTDPEDVIRNAFACFDEEASGFIHEDHLRELLTTMGDRFTDEEVDEMYREAPIDKKGNFNYVEFTRILKHGAKDKDD
B10: CMRF35-like molecule 8 (protein, UniProt Q9UGN4 18-299)
chain: LSKCRTVAGPVGGSLSVQCPYEKEHRTLNKYWCRPPQIFLCDKIVETKGSAGKRNGRVSIRDSPANLSFTVTLENLTEEDAGTYWCGVDTPWLRDFHDPVVEVEVSVFPASTSMTPASITAAKTSTITTAFPPVSSTTLFAVGATHSASIQEETEEVVNSQLPLLLSLLALLLLLLVGASLLAWRMFQKWIKAGDHSELSQNPKQAATQSELHYANLELLMWPLQEKPAPPREVEVEYSTVASPREELHYASVVFDSNTNRIAAQRPREEEPDSDYSVIRKT
B11: RAB6A-GEF complex partner protein 2 (protein, UniProt Q92546 1-391)
chain: MIEVVAELSRGPVFLAGEALECVVTVTNPLPPTATSASSEALAWASAQIHCQFHASESRVALPPPDSSQPDVQPDSQTVFLPHRGERGQCILSTPPKILFCDLRLDPGESKSYSYSEVLPIEGPPSFRGQSVKYVYKLTIGCQRVNSPITLLRVPLRVLVLTGLQDVRFPQDEAVAPSSPFLEEDEGGKKDSWLAELAGERLMAATSCRSLHLYNISDGRGKVGTFGIFKSVYRLGEDVVGTLNLGEGTVACLQFSVSLQTEERVQPEYQRRRGAGGVPSVSHVTHARHQESCLHTTRTSFSLPIPLSSTPGFCTAIVSLKWRLHFEFVTSREPGLVLLPPVEQPEPTTWTGPEQVPVDTFSWDLPIKVLPTSPTLASYAAPGPSTSTITI
B12: Rab-like protein 3 (protein, UniProt Q5HYI8 1-236)
chain: MASLDRVKVLVLGDSGVGKSSLVHLLCQNQVLGNPSWTVGCSVDVRVHDYKEGTPEEKTYYIELWDVGGSVGSASSVKSTRAVFYNSVNGIIFVHDLTNKKSSQNLRRWSLEALNRDLVPTGVLVTNGDYDQEQFADNQIPLLVIGTKLDQIHETKRHEVLTRTAFLAEDFNPEEINLDCTNPRYLAAGSSNAVKLSRFFDKVIEKRYFLREGNQIPGFPDRKRFGAGTLKSLHYD
B13: Ras-related protein Rab-39A (protein, UniProt Q14964 1-217)
chain: METIWIYQFRLIVIGDSTVGKSCLLHRFTQGRFPGLRSPACDPTVGVDFFSRLLEIEPGKRIKLQLWDTAGQERFRSITRSYYRNSVGGFLVFDITNRRSFEHVKDWLEEAKMYVQPFRIVFLLVGHKCDLASQRQVTREEAEKLSADCGMKYIETSAKDATNVEESFTILTRDIYELIKKGEICIQDGWEGVKSGFVPNTVHSSEEAVKPRKECFC
B14: Syntaxin-6 (protein, UniProt O43752 1-255)
chain: MSMEDPFFVVKGEVQKAVNTAQGLFQRWTELLQDPSTATREEIDWTTNELRNNLRSIEWDLEDLDETISIVEANPRKFNLDATELSIRKAFITSTRQVVRDMKDQMSTSSVQALAERKNRQALLGDSGSQNWSTGTTDKYGRLDRELQRANSHFIEEQQAQQQLIVEQQDEQLELVSGSIGVLKNMSQRIGGELEEQAVMLEDFSHELESTQSRLDNVMKKLAKVSHMTSDRRQWCAIAILFAVLLVVLILFLVL

Molecular target: NEU1 sialidase (endogenous, plasma membrane of macrophages) (human (endogenous in THP-1)) (UniProt Q99519)
Assay: affinity purification with mass spectrometry; 4.8 x 10^8 macrophages differentiated from THP-1 cells; surface biotinylation (sulfo-NHS-LC-biotin), lysis in HEPES buffer pH 7.5 with 1% Triton X-100, monomeric avidin agarose, elution with 10 mM biotin, then immunoprecipitation with rabbit polyclonal anti-NEU1 on protein G Sepharose (overnight, 4 °C); SDS-PAGE, 23 bands, LC-MS/MS; rabbit IgG control; two independent purifications

| Binder | binding |
| --- | --- |
| B1 | binds |
| B2 | binds |
| B3 | binds |
| B4 | binds |
| B5 | binds |
| B6 | binds |
| B7 | binds |
| B8 | binds |
| B9 | binds |
| B10 | binds |
| B11 | binds |
| B12 | binds |
| B13 | binds |
| B14 | binds |

These are yes or no findings as the source states them, for the method shown. Binding seen in cells or lysates may run through a third protein. Here binding means that the protein was enriched with, or labelled near, the bait; the list need not be complete.
